Results: PMC11740094 (RSC Medicinal Chemistry, 2024)

How the values were obtained:
peptide synthesis = conditions: whole synthesis
[1] = general procedure: Fmoc solid-phase peptide synthesis; Rink amide AM, 2-chlorotrityl chloride, preloaded Fmoc-Ile-Wang and Fmoc-Lys(Boc)-Wang resins; HBTU/DIPEA; HATU/DIPEA for palmitic acid and fragment coupling; conditions: whole synthesis, scale of the general procedure 0.05 mmol (Rink amide), 0.1 mmol (2-chlorotrityl)

Substance | final HPLC purity (peptide synthesis) [%] | isolated yield (peptide synthesis) [%] | final HPLC purity ([1]; analytical RP-HPLC) [%] | isolated yield [1] [%] | isolated yield (peptide synthesis; TFA salt) [%]
PEPTIDE1{S.R.P.R.P.D.A.L.E.I}$$$$V2.0 | >99 | 42 |  |  | 
PEPTIDE1{[ac].S.R.P.R.P.D.D.L.E.I}$$$$V2.0 | >99 | 77 |  |  | 
PEPTIDE1{[ac].S.R.P.R.[AzpT].D.D.[PraT].E.I.[am]}$PEPTIDE1,PEPTIDE1,6:R3-9:R3$$$V2.0 | >99 | 9 |  |  | 
PEPTIDE1{[KeP].[AEEA].S.R.P.R.P.D.D.L.E.I}$$$$V2.0 | 98 | 6 |  |  | 
PEPTIDE1{[ac].S.R.P.R.[PraT].D.D.L.E.[AzkT].[am]}$PEPTIDE1,PEPTIDE1,6:R3-11:R3$$$V2.0 | >99 | 9 |  |  | 
PEPTIDE1{S.R.A.R.A.D.D.L.E.I}$$$$V2.0 | >99 | 19 |  |  | 
PEPTIDE1{[KeP].S.R.P.R.[AzpT].D.D.L.E.[PraT].[am]}$PEPTIDE1,PEPTIDE1,6:R3-11:R3$$$V2.0 | 98 | 4 |  |  | 
PEPTIDE1{[palm].K.Q.I.E.I.K.K.F.K}$$$$V2.0 | >99 | 31 |  |  | 
PEPTIDE1{[palm].K.S.R.P.R.P.D.D.L.E.I}$$$$V2.0 | 98 | 24 |  |  | 
PEPTIDE1{S.R.P.R.P.A.D.L.E.I}$$$$V2.0 | >99 | 23 |  |  | 
PEPTIDE1{K.Q.I.E.I.K.K.F.K}$$$$V2.0 | 99 | 49 |  |  | 
PEPTIDE1{S.R.P.R.P.D.D.L.A.I}$$$$V2.0 | 99 | 13 |  |  | 
PEPTIDE1{[ac].S.R.P.R.[AzpT].D.D.L.E.[PraT].[am]}$PEPTIDE1,PEPTIDE1,6:R3-11:R3$$$V2.0 | 99 | 14 |  |  | 
PEPTIDE1{S.R.P.T.E.K.T.I.F.I.I}$$$$V2.0 | >99 | 49 |  |  | 
Palm-εLys-Ser-Arg-Pro-Arg-c[Azp -Asp-Asp-Leu-Glu-Pra]-Ahx-Lys(Fluorescein)-Ahx-Cys-Arg-Pro-Pro-Arg-NH2 | 95 | 2 |  |  | 
PEPTIDE1{S.R.P.R.P.D.D.L.E.I}$$$$V2.0 | >99 | 55 |  |  | 
PEPTIDE1{S.R.P.A.P.D.D.L.E.I}$$$$V2.0 | 98 | 44 |  |  | 
PEPTIDE1{S.R.P.R.P.D.D.L.E.I.[am]}$$$$V2.0 | 99 | 16 |  |  | 
PEPTIDE1{S.R.P.R.A.D.D.L.E.I}$$$$V2.0 | >99 | 48 |  |  | 
PEPTIDE1{Y.G.R.K.K.R.R.Q.R.R.R.K.Q.I.E.I.K.K.F.K}$$$$V2.0 |  |  | >99 | 34 | 
Palm-εLys-Ser-Arg-Pro-Arg-c[Azp -Asp-Asp-Leu-Glu-Pra]-Ahx-Lys(Fluorescein)-NH2 | 96 | 2 |  |  | 
PEPTIDE1{[KeP].S.R.P.R.P.D.D.L.E.I}$$$$V2.0 | 98 | 11 |  |  | 
PEPTIDE1{[palm].S.R.P.R.P.D.D.L.E.I}$$$$V2.0 | 99 | 26 |  |  | 
PEPTIDE1{S.A.P.R.P.D.D.L.E.I}$$$$V2.0 | 99 | 22 |  |  | 
PEPTIDE1{[ac].[PraT].R.P.R.[AzkT].D.D.L.E.I.[am]}$PEPTIDE1,PEPTIDE1,2:R3-6:R3$$$V2.0 | 95 | 4 |  |  | 
PEPTIDE1{S.R.A.R.P.D.D.L.E.I}$$$$V2.0 | 99 | 20 |  |  | 
H-RQPKIWFPNRRKPWKKRPRPDDLEI-OH | 95 |  |  |  | 17
Ac-Ser-Arg-Pro-Arg-c[Azp -Asp-Asp-Leu-Glu-Pra]-Ahx-Lys(Fluorescein)-Ahx-Cys-Arg-Pro-Pro-Arg-NH2 | 95 | 1 |  |  | 

HELM strings list residues between dots; [ac] is acetyl, [am] amide, other brackets name non-standard units.
